# This is one part of the list. These are further read-outs of the screen, such as a control signal, another cell line or another target. No call is given for them. The list favours compounds with an active or inconclusive main result. Words in brackets tell the shape of the fitted curve; partial curves, single points and poor fits give uncertain potencies.
# Assay: qHTS Assay for Modulators of Lamin A Splicing
# Conditions: HeLa LMNA splicing GFP/RFP minigene ratio, 48 h
# How it was run: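 S3 HeLa cells stably expressing lamin A-EGFP splicing minigene plus DsRed2, 600 cells/well, 48 h compound exposure at 37C. Laser-scanning cytometry; analysed as GFP (500-530 nm)/RFP (575-640 nm) total intensity ratio; 0.5% DMSO vehicle.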
# [1] = measured here: GFP splicing reporter channel
# [2] = measured here: RFP viability control channel
Compound,AC50 [1],AC50 [2]
CCOC(=O)c1cnc2ccc(OCC)cc2c1N1CCN(c2ccccc2)CC1,"25.1 µM [rising, partial curve]",
O=C(NC(=S)NCCC1=CCCCC1)c1cncc(Br)c1,"22.4 µM [rising, single point]","35.5 µM [rising, single point]"
c1ccc2c(c1)[nH]c1c(N3CCC4(CC3)OCCO4)ncnc12,,"12.6 µM [rising, partial curve]"
O=C(N/N=C1\C2CN3CCN(C2)CC1(c1ccccc1)C3)Nc1ccccc1,"1.12 µM [rising, full curve, poor fit]","5.62 µM [rising, partial curve]"
O=C(c1cccc(Cl)c1)N1CCCC(c2ccc(Cl)cc2)=N1,"12.6 µM [rising, single point]","25.1 µM [rising, single point]"
CC/C(C)=C1\SC(N2CCN(c3cccc(C(F)(F)F)c3)CC2)=NC1=O,,"5.62 µM [falling, partial curve, poor fit]"
CC(C)C(NS(=O)(=O)c1c(Cl)cccc1Cl)C(=O)OCC(=O)c1c[nH]c2ccccc12 (stereo unspecified),,"20 µM [rising, partial curve, poor fit]"
CCCOC(=O)c1cccc(NC(=O)CSc2nnc3cc(C)c4ccccc4n23)c1,"1.41 µM [falling, full curve, poor fit]",
CCCCCCNC(=O)CCCCCNS(=O)(=O)c1ccc(OC)cc1,"31.6 µM [rising, single point]",
CC1(CC(=O)N/N=C/c2ccc(-c3cccc(C(F)(F)F)c3)o2)OCCO1,,"7.94 µM [rising, single point]"
Cc1cc(/C=N/n2cnnc2)c(C)n1-c1ccc(OCc2ccc(F)cc2)cc1,"0.794 µM [rising, partial curve]","2.51 µM [rising, full curve]"
Cc1ccccc1N1C(=O)CSC1=C(C#N)C#N,"11.2 µM [rising, partial curve]","35.5 µM [rising, partial curve, poor fit]"
CC(C)OC(=O)Cn1nnc2c(cnn2-c2ccccc2)c1=O,,"25.1 µM [rising, single point]"
Cn1c(SCc2ccccn2)nnc1-c1ccncc1,,"3.98 µM [rising, single point]"
CCCCC(c1nnnn1CS(=O)(=O)c1ccc(C)cc1)N1CCN(c2ccccc2)CC1 (stereo unspecified),,"8.91 µM [rising, partial curve]"
CCOC(=O)c1c(-c2ccccc2)csc1NC(=O)CSc1nc(C)cc(C)n1,"22.4 µM [rising, single point]","31.6 µM [rising, partial curve]"
CC[C@@H]1O[C@]2(C=C[C@@H]1C)C[C@H]1C[C@H](CC=C(C)[C@@H](O[C@@H]3C[C@H](OC)[C@H](O[C@@H]4C[C@H](OC)[C@H](O)[C@H](C)O4)[C@H](C)O3)[C@@H](C)C=CC=C3CO[C@@H]4[C@@H](O)C(C)=C[C@@H](C(=O)O1)[C@]34O)O2,"0.0141 µM [falling, full curve, poor fit]","0.00447 µM [falling, full curve, poor fit]"
N=c1c2c(-c3ccccc3)c(-c3ccccc3)oc2ncn1CCCN1CCOCC1,"7.08 µM [rising, partial curve]",

Compound,AC50 [1],AC50 [2]
CS(=O)(=O)c1ccccc1C(=O)NC1CCCc2ccccc21 (stereo unspecified),,"6.31 µM [rising, partial curve, poor fit]"
CN1c2ccccc2C(C)(C)C12C=Nc1c(cc(N3CCOCC3)c3ccccc13)O2 (stereo unspecified),"11.2 µM [falling, single point]","8.91 µM [falling, partial curve]"
O=C(Cn1c(SCC(=O)Nc2ccc(F)cc2)nc2ccccc21)NCc1ccccc1Cl,,"35.5 µM [falling, single point]"
COc1ccc(-c2cc3nc(C)c(CCC(=O)N4CCN(c5ccccn5)CC4)c(C)n3n2)c(OC)c1,,"0.891 µM [falling, full curve, poor fit]"
CC(C)(C)n1nc2c(c1NC(=O)c1ccc(S(=O)(=O)N3CCCC3)cc1)CSC2,"10 µM [rising, partial curve, poor fit]",
O=C(/C=C\c1ccco1)Nc1cc([N+](=O)[O-])ccc1F,"0.00447 µM [falling, full curve, poor fit]",
Cc1cccc(OCCCSc2nc3ccccc3[nH]2)c1,"0.00447 µM [rising, full curve, poor fit]","10 µM [rising, partial curve]"
C[C@@H](Nc1nc(-c2ccccc2)nc2c1oc1ccccc12)C(=O)O,,"22.4 µM [rising, single point]"
CCCCCCc1cc2cc(-c3nnc(-c4ccccc4O)o3)c(=O)oc2cc1O,,"12.6 µM [rising, single point]"
O=C(N/N=C/c1ccccn1)c1cc(-c2ccncc2)nc2ccccc12,"14.1 µM [rising, single point]","25.1 µM [rising, single point]"
COc1cc(OC)cc(C(=O)Nc2cc(-c3nc4cccnc4s3)ccc2C)c1,,"12.6 µM [rising, partial curve, poor fit]"
CCC(C(=O)Nc1ccc(C(=O)OC)cc1)n1nc(-c2ccc(C)c(C)c2)ccc1=O (stereo unspecified),"10 µM [falling, partial curve, poor fit]",
Nc1nc(SCC(=O)NC2CCCc3ccccc32)n[nH]1 (stereo unspecified),,"0.158 µM [rising, partial curve]"
COc1ccc(F)cc1S(=O)(=O)n1nnc2ccccc21,"4.47 µM [rising, single point]",
c1coc(CSCc2cn3cccnc3n2)c1,,"11.2 µM [rising, single point]"
COc1ccc2c(c1OC)C(=O)OC2C/C(=N\NC(N)=O)c1ccccc1 (stereo unspecified),,"31.6 µM [rising, single point]"
CC(O)c1cccc(NC(=O)Cc2cccc3ccccc23)c1 (stereo unspecified),"25.1 µM [falling, partial curve]","0.0447 µM [falling, full curve, poor fit]"

# Of the compounds above, nine have a halogen:
Compound,AC50 [1],AC50 [2]
O=C(NC(=S)NCCC1=CCCCC1)c1cncc(Br)c1,"22.4 µM [rising, single point]","35.5 µM [rising, single point]"
O=C(c1cccc(Cl)c1)N1CCCC(c2ccc(Cl)cc2)=N1,"12.6 µM [rising, single point]","25.1 µM [rising, single point]"
CC/C(C)=C1\SC(N2CCN(c3cccc(C(F)(F)F)c3)CC2)=NC1=O,,"5.62 µM [falling, partial curve, poor fit]"
CC(C)C(NS(=O)(=O)c1c(Cl)cccc1Cl)C(=O)OCC(=O)c1c[nH]c2ccccc12 (stereo unspecified),,"20 µM [rising, partial curve, poor fit]"
CC1(CC(=O)N/N=C/c2ccc(-c3cccc(C(F)(F)F)c3)o2)OCCO1,,"7.94 µM [rising, single point]"
Cc1cc(/C=N/n2cnnc2)c(C)n1-c1ccc(OCc2ccc(F)cc2)cc1,"0.794 µM [rising, partial curve]","2.51 µM [rising, full curve]"
O=C(Cn1c(SCC(=O)Nc2ccc(F)cc2)nc2ccccc21)NCc1ccccc1Cl,,"35.5 µM [falling, single point]"
O=C(/C=C\c1ccco1)Nc1cc([N+](=O)[O-])ccc1F,"0.00447 µM [falling, full curve, poor fit]",
COc1ccc(F)cc1S(=O)(=O)n1nnc2ccccc21,"4.47 µM [rising, single point]",
